Laboratory results reported in patent US20240158455A1, “MULTIPLE SCLEROSIS ASSOCIATED AUTOANTIGENS, AND USE THEREOF IN THERAPY AND DIAGNOSIS” (NEOGAP Therapeutics AB, priority 2017, published 2024).
These are yes or no findings as the source states them, for the method shown. Binding can be weak; no strength is given.

molecular target: HLA DRB5 01:01; assay: competition binding assay on HLA DRB5 01:01

| Binder | binding |
| --- | --- |
| KSIRICTPMGKLGDS [PROK2 peptide #6 (Aa 53-67 of SEQ ID NO: 2)] | binds |
| NSPFFLVFFSSPHTS [FABP7 peptide #28 (Aa 121-135 of SEQ ID NO: 1)] | binds |

molecular target: HLA DRB5 01:01; assay: competitive HLA binding assay (legend: + weak binding)

| Binder | binding |
| --- | --- |
| VEAFCATWKLTNSQN [FABP7 peptide #1 (Aa 02-16 of SEQ ID NO: 1)] | binds |
| LVFFSSPHTSHLLPS [FABP7 peptide #29 (Aa 126-140 of SEQ ID NO: 1)] | binds |
| SPHTSHLLPSSSLLL [FABP7 peptide #30 (Aa 131-145 of SEQ ID NO: 1)] | binds |
| SFFNNTSLARFFNYM [FABP7 peptide #34 (Aa 152-166 of SEQ ID NO: 1)] | binds |
| GMCCAVSIWVKSIRI [PROK2 peptide #4 (Aa 43-57 of SEQ ID NO: 2)] | binds |
| VSIWVKSIRICTPMG [PROK2 peptide #5 (Aa 48-62 of SEQ ID NO: 2)] | binds |
| CHPLTRKNNFGNGRQ [PROK2 peptide #9 (Aa 68-82 of SEQ ID NO: 2)] | binds |
| RKNNFGNGRQERRKR [PROK2 peptide #10 (Aa 73-87 of SEQ ID NO: 2)] | binds |
| KKEVPFFGRRMHHTC [PROK2 peptide #14 (Aa 93-107 of SEQ ID NO: 2)] | binds |
| ATWKLTNSQNFDEYM [FABP7 peptide #2 (Aa 07-21 of SEQ ID NO: 1)] | binds |
| CLRTSFNRFICLAQK [PROK2 peptide #21 (Aa 115-129 of SEQ ID NO: 2)] | binds |
| GFATRQVGNVTKPTV [FABP7 peptide #6 (Aa 27-41 of SEQ ID NO: 1)] | binds |
| GDKVVIRTLSTFKNT [FABP7 peptide #10 (Aa 47-61 of SEQ ID NO: 1)] | binds |
| ETNFVREIKDGKMVM [FABP7 peptide #21 (Aa 102-116 of SEQ ID NO: 1)] | binds |
| LTFGDVVAVRHYEKA [FABP7 peptide #24 (Aa 118-132 of SEQ ID NO: 6)] | binds |
| DGKMVMVSNDNSPFF [FABP7 peptide #26 (Aa 111-125 of SEQ ID NO: 1)] | binds |

molecular target: HLA DRB5 01:01; assay: competitive HLA binding assay (legend: +++ strong binding)

| Binder | binding |
| --- | --- |
| KSIRICTPMGKLGDS [PROK2 peptide #6 (Aa 53-67 of SEQ ID NO: 2)] | binds |
| NSPFFLVFFSSPHTS [FABP7 peptide #28 (Aa 121-135 of SEQ ID NO: 1)] | binds |

molecular target: HLA DRB5 01:01; assay: competitive HLA binding assay (legend: ++ moderate binding)

| Binder | binding |
| --- | --- |
| PFFLLPSFFNNTSLA [FABP7 peptide #33 (Aa 146-160 of SEQ ID NO: 1)] | binds |
| LPGLACLRTSFNRFI [PROK2 peptide #20 (Aa 110-124 of SEQ ID NO: 2)] | binds |
| FDEYMKALGVGFATR [FABP7 peptide #4 (Aa 17-31 of SEQ ID NO: 1)] | binds |
